Reference: the supplement of paper PMC6078165
The reference is the same well before dosing, and untreated signal decays as well.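 Fibroblast labels denote human fibroblasts, mainly primary ones from uterus (C12385, HUF), lung (H6013), bone (Hs27A), adrenal (HADF) and skin (WS1), plus mammary HMF and breast cancer-associated Hs343T. Cancer cells are basal-like or mesenchymal-like triple-negative breast cancer lines. A hit is a response shift exceeding 3x replicate standard deviation. The tissue of the other fibroblasts is not given here.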

System: MDAMB468
Experiment: relative JC-1 red fluorescence (viability) vs pre-drug, coculture with fibroblast (fraction); higher = more viable cancer cells
Settings: 0.1 µM
Experimental: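 JC-1 labelled TNBC cells cocultured 1:1 (1,500 cells each) with CellTrace Violet stained primary or stromal fibroblasts in 384-well plates in FluoroBrite medium, treated with one of 42 anticancer drugs at 0.1, 1, 10 or 100 uM. JC-1 red fluorescence (mitochondrial integrity in cancer cells only) was read by plate reader every 8 h for 72 h. Values are normalised to each well's pre-drug value. The stock of one drug was tenfold lower, so its dose labels may be too high.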

COc1cc([C@@H]2c3cc4c(cc3[C@@H](O[C@@H]3O[C@@H]5CO[C@@H](c6cccs6)O[C@H]5[C@H](O)[C@H]3O)[C@H]3COC(=O)[C@H]23)OCO4)cc(OC)c1O [Teniposide]
relative JC-1 red fluorescence
Settings	8 h	16 h	24 h	32 h	40 h	48 h	56 h	64 h	72 h
coculture fibroblast: C12385	0.84337	0.847	0.826	0.778	0.74	0.736	0.703	0.694	0.69
coculture fibroblast: H6013	0.857	0.846	0.8	0.783	0.738	0.748	0.714	0.693	0.651
coculture fibroblast: H6019	0.83	0.802	0.7726	0.727	0.6965	0.6916	0.641	0.618	0.603
coculture fibroblast: H6076	0.911	0.9248	0.8675	0.863	0.7954	0.7886	0.759	0.744	0.802
coculture fibroblast: H6231	0.813	0.9049	0.8454	0.844	0.784	0.755	0.697	0.67	0.659
coculture fibroblast: HADF	0.847	0.843	0.781	0.767	0.722	0.719	0.682	0.67	0.632
coculture fibroblast: HCFa	0.85707	0.835	0.787	0.76	0.701	0.688	0.637	0.604	0.552
coculture fibroblast: HCPF	0.8375	0.908	0.83	0.828	0.76	0.7363	0.6763	0.666	0.654
coculture fibroblast: HHSteC	0.873	0.853	0.799	0.764	0.722	0.711	0.654	0.633	0.582
coculture fibroblast: HMF	0.821	0.9132	0.866	0.842	0.763	0.736	0.703	0.69	0.68
coculture fibroblast: HPFa	0.94	0.909	0.892	0.827	0.807	0.801	0.755	0.731	0.649
coculture fibroblast: HUF	0.857	0.8361	0.792	0.734	0.701	0.688	0.655	0.647	0.637
coculture fibroblast: Hs5	0.955	0.93	0.909	0.8953	0.823	0.7992	0.7711	0.735	0.771
coculture fibroblast: Hs27A	0.848	0.847	0.7854	0.76993	0.715	0.721	0.693	0.683	0.64
coculture fibroblast: Hs343T	0.8552	0.898	0.841	0.832	0.762	0.759	0.721	0.712	0.697
coculture fibroblast: WS1	0.8289	0.784	0.749	0.686	0.648	0.627	0.61	0.595	0.594
